Assay results from US20200181677A1, “SCREENING SYSTEM AND METHODS FOR IDENTIFYING ENZYME SUBSTRATES AND MODULATORS OF ENZYME ACTIVITY” (Regents of the University of Minnesota, priority 2017, published 2020).
No constants are given. Whether binding was seen depends on the method and setting. Some binding calls cover weakened binding; strength is not graded here.

Key:
[1] = target: human PKCα catalytic domain (human) (UniProt P17252); test: steady-state FRET ratio of 10 nm sensor (FIG. 5A)
[2] = target: human PKCα catalytic domain (human) (UniProt P17252); test: steady-state FRET of sensor with 100 µM ATP, titrated with BimI (FIG. 6A)
[3] = target: human PKCα catalytic domain (human) (UniProt P17252); test: FRET intensity ratio of SPASM sensors (FIG. 9B)
[4] = target: human PKCα catalytic domain (human) (UniProt P17252); test: steady-state FRET of sensors (FIG. 4B)
[5] = target: human PKCα catalytic domain (human) (UniProt P17252); test: steady-state FRET of the corresponding sensors (legend of FIG. 6B)
[6] = target: human PKCα catalytic domain (human) (UniProt P17252); test: affinity by steady-state FRET of the corresponding sensors (FIGS. 6B, 6C)
[7] = target: human PKCα catalytic domain (human) (UniProt P17252); test: affinity by FRET of the corresponding sensor; peptide used free in the activity assay (FIG. 5B)
[8] = target: human PKCα catalytic domain (human) (UniProt P17252); test: steady-state FRET of sensor, untreated against kinase inhibitors (FIG. 7)
[9] = target: human PKCα catalytic domain (human) (UniProt P17252); test: steady-state FRET of sensors without nucleotide (FIG. 4B)
[10] = target: human PKCα catalytic domain (human) (UniProt P17252); test: relative binding affinity by FRET (FIG. 4B)

Binder | binding [3] | binding [5] | binding [6] | other results
FKLKRKGAFKKFA [peptide #11 (Optimized PKCβ Sub.), alanine-substituted, in PKCα FRET sensor] | binds |  |  | binding [1]: binds; binding [2]: binds
RRRRAIIFI (peptide, not shown: large carriers; small tags and cut ends) [peptide #10 (Optimized PKA Sub.), alanine-substituted, in PKCα FRET sensor] | binds |  |  | binding [4]: binds
FKLKRKGSFKKFA [peptide #11 (Optimized PKCβ Sub.), substrate peptide] |  | binds | binds | 
RRFKRQGSFFYFF [peptide #12 (Optimized PKCζ Sub.), serine-containing substrate peptide] |  |  |  | binding [7]: binds
ASQKRPSQRH [peptide #6 (Myelin Basic Protein), serine-containing substrate peptide] |  | binds | binds | binding [7]: binds
ARKRERTYAFGHHA [peptide #9 (Optimized AKT Sub.), alanine-substituted, in PKCα FRET sensor] | binds |  |  | 

Continued, in another order:

binding [3] | binding [5] | binding [6] | Binder | other results
 | binds | binds | IVRKATLRRLL [peptide #8 (EGF Receptor), threonine-containing substrate peptide] | 
binds |  |  | IVRKAALRRLL [peptide #8 (EGF Receptor substrate peptide), alanine-substituted, in PKCα FRET sensor] | binding [1]: binds; binding [2]: binds; binding [8]: binds; binding [9]: binds
binds |  |  | RRFKRQGAFFYFF (peptide, not shown: large carriers; small tags and cut ends) [peptide #12 (Optimized PKCζ Sub.), alanine-substituted, in PKCα FRET sensor] | binding [10]: binds
binds |  |  | KKKRFAFKKAF (peptide, not shown: large carriers; small tags and cut ends) [peptide #13 (MARCKS), alanine-substituted, in PKCα FRET sensor] | binding [4]: binds
